The target in test [1] is T1, Elk1 (UniProt P19419).
T1 sequence: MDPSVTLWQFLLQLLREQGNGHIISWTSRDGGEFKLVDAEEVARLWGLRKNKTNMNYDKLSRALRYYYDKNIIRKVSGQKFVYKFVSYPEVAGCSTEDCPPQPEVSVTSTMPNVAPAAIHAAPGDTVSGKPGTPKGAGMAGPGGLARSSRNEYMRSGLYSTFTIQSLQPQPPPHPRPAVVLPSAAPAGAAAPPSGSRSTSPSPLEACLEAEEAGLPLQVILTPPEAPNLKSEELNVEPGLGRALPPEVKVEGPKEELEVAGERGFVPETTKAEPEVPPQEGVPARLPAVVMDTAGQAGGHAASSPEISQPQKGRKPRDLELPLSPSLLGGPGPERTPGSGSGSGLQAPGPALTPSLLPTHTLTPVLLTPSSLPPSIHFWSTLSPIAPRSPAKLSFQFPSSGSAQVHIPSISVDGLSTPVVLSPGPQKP
As to the kind of experiment: co-IP; HEK293 cells under normoxia and hypoxia; IP-western blot of HIF-1α with Elk1. (Immunoblotting shows a protein as a band on a membrane.)

The chains behind the UniProt entries cited, without tags or fusion partners. Where a name states a change or a piece, a line headed by the entry shows the natural chain unless it says otherwise. A line that says so, or that is headed by a name, gives the form on record, which may keep a tag or linker.
UniProt Q16665: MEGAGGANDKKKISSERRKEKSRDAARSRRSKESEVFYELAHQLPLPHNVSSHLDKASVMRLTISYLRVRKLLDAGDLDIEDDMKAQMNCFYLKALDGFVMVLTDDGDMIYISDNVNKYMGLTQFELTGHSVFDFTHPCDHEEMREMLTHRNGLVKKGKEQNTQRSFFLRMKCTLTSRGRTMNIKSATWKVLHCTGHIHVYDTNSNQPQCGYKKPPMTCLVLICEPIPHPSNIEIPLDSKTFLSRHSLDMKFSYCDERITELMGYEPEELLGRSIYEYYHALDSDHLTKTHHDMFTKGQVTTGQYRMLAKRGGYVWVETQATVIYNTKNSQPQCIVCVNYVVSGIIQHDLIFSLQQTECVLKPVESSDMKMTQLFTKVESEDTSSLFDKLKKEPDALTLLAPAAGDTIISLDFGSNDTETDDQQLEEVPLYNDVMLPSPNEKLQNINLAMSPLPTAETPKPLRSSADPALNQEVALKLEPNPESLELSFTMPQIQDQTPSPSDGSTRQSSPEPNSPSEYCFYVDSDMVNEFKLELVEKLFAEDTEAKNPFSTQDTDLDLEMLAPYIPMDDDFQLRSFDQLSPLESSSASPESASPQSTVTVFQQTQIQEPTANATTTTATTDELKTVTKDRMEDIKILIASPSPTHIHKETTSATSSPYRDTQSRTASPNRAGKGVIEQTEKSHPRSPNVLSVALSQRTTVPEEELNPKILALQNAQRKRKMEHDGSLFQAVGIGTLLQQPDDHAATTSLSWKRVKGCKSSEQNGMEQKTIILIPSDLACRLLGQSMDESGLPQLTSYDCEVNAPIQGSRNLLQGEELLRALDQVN
O2-stable mutant of HIF-1α (P402/564A) (Q16665, form named): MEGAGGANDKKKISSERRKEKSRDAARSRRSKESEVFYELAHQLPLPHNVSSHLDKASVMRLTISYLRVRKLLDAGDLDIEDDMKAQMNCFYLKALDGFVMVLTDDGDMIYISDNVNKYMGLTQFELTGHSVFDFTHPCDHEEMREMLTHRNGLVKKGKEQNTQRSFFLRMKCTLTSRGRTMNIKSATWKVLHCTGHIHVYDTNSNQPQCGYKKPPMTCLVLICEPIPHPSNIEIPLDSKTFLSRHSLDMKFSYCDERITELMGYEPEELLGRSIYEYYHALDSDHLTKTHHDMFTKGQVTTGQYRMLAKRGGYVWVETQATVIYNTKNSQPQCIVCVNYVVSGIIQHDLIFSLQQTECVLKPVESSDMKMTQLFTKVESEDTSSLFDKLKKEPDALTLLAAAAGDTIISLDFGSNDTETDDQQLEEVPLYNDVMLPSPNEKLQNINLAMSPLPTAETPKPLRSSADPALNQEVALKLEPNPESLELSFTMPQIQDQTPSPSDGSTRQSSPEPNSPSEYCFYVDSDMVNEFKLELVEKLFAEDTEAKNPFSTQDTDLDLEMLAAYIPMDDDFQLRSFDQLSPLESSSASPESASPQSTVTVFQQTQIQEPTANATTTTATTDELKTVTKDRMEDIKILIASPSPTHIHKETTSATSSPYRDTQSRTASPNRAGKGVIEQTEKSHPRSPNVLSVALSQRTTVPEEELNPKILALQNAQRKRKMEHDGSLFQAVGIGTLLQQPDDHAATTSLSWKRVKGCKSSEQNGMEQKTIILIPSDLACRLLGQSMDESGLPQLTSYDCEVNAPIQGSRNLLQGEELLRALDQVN
UniProt Q99814: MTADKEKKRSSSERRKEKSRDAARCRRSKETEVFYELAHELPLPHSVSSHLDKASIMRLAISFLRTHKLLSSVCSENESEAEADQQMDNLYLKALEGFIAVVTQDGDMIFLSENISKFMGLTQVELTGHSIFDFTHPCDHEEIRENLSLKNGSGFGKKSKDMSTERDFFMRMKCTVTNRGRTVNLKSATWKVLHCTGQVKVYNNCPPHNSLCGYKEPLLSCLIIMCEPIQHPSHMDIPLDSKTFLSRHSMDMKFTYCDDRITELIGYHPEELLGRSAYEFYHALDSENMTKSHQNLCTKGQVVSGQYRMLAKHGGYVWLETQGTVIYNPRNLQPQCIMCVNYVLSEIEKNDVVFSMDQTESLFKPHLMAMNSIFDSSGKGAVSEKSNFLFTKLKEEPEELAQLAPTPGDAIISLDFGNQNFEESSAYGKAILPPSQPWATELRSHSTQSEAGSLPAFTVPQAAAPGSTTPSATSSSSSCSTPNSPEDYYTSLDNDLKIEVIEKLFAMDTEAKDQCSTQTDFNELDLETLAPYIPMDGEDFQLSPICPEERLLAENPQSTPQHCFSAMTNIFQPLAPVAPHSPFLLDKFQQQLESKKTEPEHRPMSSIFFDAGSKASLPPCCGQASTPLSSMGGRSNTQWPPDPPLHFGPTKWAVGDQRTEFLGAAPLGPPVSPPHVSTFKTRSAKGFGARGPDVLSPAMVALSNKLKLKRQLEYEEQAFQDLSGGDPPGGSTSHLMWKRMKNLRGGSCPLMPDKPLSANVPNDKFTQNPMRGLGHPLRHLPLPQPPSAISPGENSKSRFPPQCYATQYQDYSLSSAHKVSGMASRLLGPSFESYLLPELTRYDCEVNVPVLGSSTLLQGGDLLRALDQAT
O2-stable mutant of HIF-2α (P405/531A) (Q99814, form named): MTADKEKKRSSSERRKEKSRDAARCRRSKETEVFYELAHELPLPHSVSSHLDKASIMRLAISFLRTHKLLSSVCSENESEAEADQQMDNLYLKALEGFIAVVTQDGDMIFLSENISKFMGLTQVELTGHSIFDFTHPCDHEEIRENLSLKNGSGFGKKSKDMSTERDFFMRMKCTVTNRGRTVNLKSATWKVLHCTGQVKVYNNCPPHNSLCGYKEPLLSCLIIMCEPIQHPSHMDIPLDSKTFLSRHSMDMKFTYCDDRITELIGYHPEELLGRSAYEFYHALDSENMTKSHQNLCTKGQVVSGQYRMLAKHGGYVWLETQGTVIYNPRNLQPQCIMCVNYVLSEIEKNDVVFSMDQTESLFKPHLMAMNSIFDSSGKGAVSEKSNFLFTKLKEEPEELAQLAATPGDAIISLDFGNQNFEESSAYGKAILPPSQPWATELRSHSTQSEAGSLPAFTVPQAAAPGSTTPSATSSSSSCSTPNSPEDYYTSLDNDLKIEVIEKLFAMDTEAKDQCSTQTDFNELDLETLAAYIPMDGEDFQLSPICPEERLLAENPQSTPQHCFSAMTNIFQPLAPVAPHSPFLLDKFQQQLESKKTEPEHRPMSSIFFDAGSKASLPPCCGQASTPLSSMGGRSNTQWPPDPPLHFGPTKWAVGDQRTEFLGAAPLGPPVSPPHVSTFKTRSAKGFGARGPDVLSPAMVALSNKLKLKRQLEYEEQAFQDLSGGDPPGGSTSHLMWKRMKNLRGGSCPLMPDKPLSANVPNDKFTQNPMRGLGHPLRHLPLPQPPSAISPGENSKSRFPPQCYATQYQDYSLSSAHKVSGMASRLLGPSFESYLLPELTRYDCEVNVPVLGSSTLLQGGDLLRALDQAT

Test [2] has as its target T1, Elk1. As to the kind of experiment: co-IP; HEK293 or WiDr cells co-transfected with S-tagged HIF and FLAG-tagged ETS factor; lysis in 20 mM Tris-HCl pH 7.5, 137 mM NaCl, 0.5% NP-40, 0.5 mM DTT; IP with FLAG M2 agarose 1 hr at 4°C, elution with 3×FLAG peptide; western blot with anti-FLAG and anti-S-tag.

No constants are given. Whether binding was seen depends on the method and setting. In cells and extracts the contact can be indirect. Some results given as binding are weak or reduced against the parent protein; the word gives no strength.

HIF-1α (from UniProt Q16665 1-826): the binding entry in test [1] is reported as “binds”.

For the substance “O2-stable mutant of HIF-1α (P402/564A) (from UniProt Q16665 1-826)”, the binding result in test [2] was “binds”.

For “O2-stable mutant of HIF-2α (P405/531A) (from UniProt Q99814 1-870)”, the binding result in test [2] is given as “no binding”.
